At least one structure is not confirmed: it was looked up by name or label, or the drawing left a doubt.
Tested on: Orobanche cumana Wallr. seeds (race 'F')
Test: Germination of preconditioned Orobanche cumana seeds on glass fiber filter paper in petri dishes
Format: in vivo
Conditions: summary of Tables 3 to 6
Procedure: The effect of compounds of Formula (I) on germination of Orobanche cumana Wallr. seeds was evaluated on glass fiber filter paper (GFFP) in petri dishes. Seeds were preconditioned at moisture and suitable temperature to become responsive to the specific chemical germination stimulants.
Test compounds were dissolved in DMSO (10 000 mg 1^−1) and stored at room temperature in a desiccators with desiccants. The stock solutions were dissolved with deionised water to the appropriate final test concentration.
Seeds of O. cumana race ‘F’ were collected from a sunflower field in Manzanilla (Seville, Spain) in 2006 (IN146) and 2008 (IN153), respectively and stored at room temperature. To separate seeds from heavy organic debris, a modified sucrose floatation technique as described by Hartman & Tanimonure (Plant Disease (1991), 75, p. 494) was applied. Seeds were filled into a separation funnel and stirred in water. When seeds floated to the surface, the water fraction containing heavy debris was discarded. Seeds were re-suspended in 2.5M sucrose solution (specific gravity of 1.20) and heavy debris was allowed to settle down for 60 min. After removing debris, seeds were disinfected in 1% sodium hypochlorite solution and 0.025% (v/v) Tween 20 for 2 min. […] Germination of 100 seeds per replicate was evaluated on digital images. […]

For `CC1=C[C@H](O/C=C2/C(=O)N(C(=O)OC(C)(C)C)[C@@H]3C4=CCC[C@H]4C[C@H]23)OC1=O` [Compound P5, Tert-butyl (3E,3aR,4aS,7bS)-3-[[4-methyl-5-oxo-2H-furan-2-yl]oxymethylene]-2-oxo-3a,4,4a,5,6,7b-hexahydropentaleno[1,2-b]pyrrole-1-carboxylate], the “Germination inducing effect on Orobanche cumana seeds (summary in words)” value was “germination inducing effect”.
